Laboratory results reported in patent US20250283871A1, “COMPOSITIONS AND METHODS FOR MODULATING THE INTERACTION BETWEEN SS18-SSX FUSION ONCOPROTEIN AND NUCLEOSOMES” (Dana-Farber Cancer Institute, Inc., priority 2020, published 2025).

B1: GK (protein, UniProt P32189 1-559, looked up)
Glycerol kinase: MAASKKAVLGPLVGAVDQGTSSTRFLVFNSKTAELLSHHQVEIKQEFPREGWVEQDPKEILHSVYECIEKTCEKLGQLNIDISNIKAIGVSNQRETTVVWDKITGEPLYNAVVWLDLRTQSTVESLSKRIPGNNNFVKSKTGLPLSTYFSAVKLRWLLDNVRKVQKAVEEKRALFGTIDSWLIWSLTGGVNGGVHCTDVTNASRTMLFNIHSLEWDKQLCEFFGIPMEILPNVRSSSEIYGLMKISHSVKAGALEGVPISGCLGDQSAALVGQMCFQIGQAKNTYGTGCFLLCNTGHKCVFSDHGLLTTVAYKLGRDKPVYYALEGSVAIAGAVIRWLRDNLGIIKTSEEIEKLAKEVGTSYGCYFVPAFSGLYAPYWEPSARGIICGLTQFTNKCHIAFAALEAVCFQTREILDAMNRDCGIPLSHLQVDGGMTSNKILMQLQADILYIPVVKPSMPETTALGAAMAAGAAEGVGVWSLEPEDLSAVTMERFEPQINAEESEIRYSTWKKAVMKSMGWVTTQSPESGDPSIFCSLPLGFFIVSSMVMLIGARYISGIP
B2: DHRS7B (protein, UniProt Q6IAN0 1-325, looked up)
Dehydrogenase/reductase SDR …: MVSPATRKSLPKVKAMDFITSTAILPLLFGCLGVFGLFRLLQWVRGKAYLRNAVVVITGATSGLGKECAKVFYAAGAKLVLCGRNGGALEELIRELTASHATKVQTHKPYLVTFDLTDSGAIVAAAAEILQCFGYVDILVNNAGISYRGTIMDTTVDVDKRVMETNYFGPVALTKALLPSMIKRRQGHIVAISSIQGKMSIPFRSAYAASKHATQAFFDCLRAEMEQYEIEVTVISPGYIHTNLSVNAITADGSRYGVMDTTTAQGRSPVEVAQDVLAAVGKKKKDVILADLLPSLAVYLRTLAPGLFFSLMASRARKERKSKNS
B3: SLC3A2 (protein, UniProt P08195 1-630, looked up)
Amino acid transporter heavy …: MELQPPEASIAVVSIPRQLPGSHSEAGVQGLSAGDDSELGSHCVAQTGLELLASGDPLPSASQNAEMIETGSDCVTQAGLQLLASSDPPALASKNAEVTGTMSQDTEVDMKEVELNELEPEKQPMNAASGAAMSLAGAEKNGLVKIKVAEDEAEAAAAAKFTGLSKEELLKVAGSPGWVRTRWALLLLFWLGWLGMLAGAVVIIVRAPRCRELPAQKWWHTGALYRIGDLQAFQGHGAGNLAGLKGRLDYLSSLKVKGLVLGPIHKNQKDDVAQTDLLQIDPNFGSKEDFDSLLQSAKKKSIRVILDLTPNYRGENSWFSTQVDTVATKVKDALEFWLQAGVDGFQVRDIENLKDASSFLAEWQNITKGFSEDRLLIAGTNSSDLQQILSLLESNKDLLLTSSYLSDSGSTGEHTKSLVTQYLNATGNRWCSWSLSQARLLTSFLPAQLLRLYQLMLFTLPGTPVFSYGDEIGLDAAALPGQPMEAPVMLWDESSFPDIPGAVSANMTVKGQSEDPGSLLSLFRRLSDQRSKERSLLHGDFHAFSAGPGLFSYIRHWDQNERFLVVLNFGDVGLSAGLQASDLPASASLPAKADLLLSTQPGREEGSPLELERLKLEPHEGLLLRFPYAA
B4: ERAL1 (protein, UniProt O75616 44-437, looked up)
GTPase Era, mitochondrial: VSCVAGSAFSGPRLASASRSNGQGSALDHFLGFSQPDSSVTPCVPAVSMNRDEQDVLLVHHPDMPENSRVLRVVLLGAPNAGKSTLSNQLLGRKVFPVSRKVHTTRCQALGVITEKETQVILLDTPGIISPGKQKRHHLELSLLEDPWKSMESADLVVVLVDVSDKWTRNQLSPQLLRCLTKYSQIPSVLVMNKVDCLKQKSVLLELTAALTEGVVNGKKLKMRQAFHSHPGTHCPSPAVKDPNTQSVGNPQRIGWPHFKEIFMLSALSQEDVKTLKQYLLTQAQPGPWEYHSAVLTSQTPEEICANIIREKLLEHLPQEVPYNVQQKTAVWEEGPGGELVIQQKLLVPKESYVKLLIGPKGHVISQIAQEAGHDLMDIFLCDVDIRLSVKLLK
B5: ATP2B4 (protein)
chain: MTNPSDRVLPANSMAESREGDFGCTVMELRKLMELRSRDALTQINVHYGGVQNLCSRLKTSPVEGLSGNPADLEKRRQVFGHNVIPPKKPKTFLELVWEALQDVTLIILEIAAIISLVLSFYRPAGEENELCGQVATTPEDENEAQAGWIEGAAILFSVIIVVLVTAFNDWSKEKQFRGLQCRIEQEQKFSIIRNGQLIQLPVAEIVVGDIAQVKYGDLLPADGILIQGNDLKIDESSLTGESDHVKKSLDKDPMLLSGTHVMEGSGRMVVTAVGVNSQTGIILTLLGVNEDDEGEKKKKGKKQGVPENRNKAKTQDGVALEIQPLNSQEGIDNEEKDKKAVKVPKKEKSVLQGKLTRLAVQIGKAGLLMSALTVFILILYFVIDNFVINRRPWLPECTPIYIQYFVKFFIIGITVLVVAVPEGLPLAVTISLAYSVKKMMKDNNLVRHLDACETMGNATAICSDKTGTLTMNRMTVVQAYIGGIHYRQIPSPDVFLPKVLDLIVNGISINSAYTSKILPPEKEGGLPRQVGNKTECALLGFVTDLKQDYQAVRNEVPEEKLYKVYTFNSVRKSMSTVIRNPNGGFRMYSKGASEIILRKCNRILDRKGEAVPFKNKDRDDMVRTVIEPMACDGLRTICIAYRDFDDTEPSWDNENEILTELTCIAVVGIEDPVRPEVPDAIAKCKQAGITVRMVTGDNINTARAIATKCGILTPGDDFLCLEGKEFNRLIRNEKGEVEQEKLDKIWPKLRVLARSSPTDKHTLVKGIIDSTVGEHRQVVAVTGDGTNDGPALKKADVGFAMGIAGTDVAKEASDIILTDDNFTSIVKAVMWGRNVYDSISKFLQFQLTVNVVAVIVAFTGACITQDSPLKAVQMLWVNLIMDTFASLALATEPPTESLLKRRPYGRNKPLISRTMMKNILGHAFYQLIVIFILVFAGEKFFDIDSGRKAPLHSPPSQHYTIVFNTFVLMQLFNEINSRKIHGEKNVFSGIYRNIIFCSVVLGTFICQIFIVEFGGKPFSCTSLSLSQWLWCLFIGIGELLWGQFISAIPTRSLKFLKEAGHGTTKEEITKDAEGLDEIDHAEMELRRGQILWFRGLNRIQTQIDVINTFQTGASFKGVLRRQNMGQHLDVKLVPSSSYIKVVKAFHSSLHESIQKPYNQKSIHSFMTHPEFAIEEELPRTPLLDEEEEENPDKASKFGTRVLLLDGEVTPYANTNNNAVDCNQVQLPQSDSSLQSLETSV
B6: SLIT2 (protein, UniProt O94813 31-1529, looked up)
Slit homolog 2 protein: QCSCSGSTVDCHGLALRSVPRNIPRNTERLDLNGNNITRITKTDFAGLRHLRVLQLMENKISTIERGAFQDLKELERLRLNRNHLQLFPELLFLGTAKLYRLDLSENQIQAIPRKAFRGAVDIKNLQLDYNQISCIEDGAFRALRDLEVLTLNNNNITRLSVASFNHMPKLRTFRLHSNNLYCDCHLAWLSDWLRQRPRVGLYTQCMGPSHLRGHNVAEVQKREFVCSGHQSFMAPSCSVLHCPAACTCSNNIVDCRGKGLTEIPTNLPETITEIRLEQNTIKVIPPGAFSPYKKLRRIDLSNNQISELAPDAFQGLRSLNSLVLYGNKITELPKSLFEGLFSLQLLLLNANKINCLRVDAFQDLHNLNLLSLYDNKLQTIAKGTFSPLRAIQTMHLAQNPFICDCHLKWLADYLHTNPIETSGARCTSPRRLANKRIGQIKSKKFRCSAKEQYFIPGTEDYRSKLSGDCFADLACPEKCRCEGTTVDCSNQKLNKIPEHIPQYTAELRLNNNEFTVLEATGIFKKLPQLRKINFSNNKITDIEEGAFEGASGVNEILLTSNRLENVQHKMFKGLESLKTLMLRSNRITCVGNDSFIGLSSVRLLSLYDNQITTVAPGAFDTLHSLSTLNLLANPFNCNCYLAWLGEWLRKKRIVTGNPRCQKPYFLKEIPIQDVAIQDFTCDDGNDDNSCSPLSRCPTECTCLDTVVRCSNKGLKVLPKGIPRDVTELYLDGNQFTLVPKELSNYKHLTLIDLSNNRISTLSNQSFSNMTQLLTLILSYNRLRCIPPRTFDGLKSLRLLSLHGNDISVVPEGAFNDLSALSHLAIGANPLYCDCNMQWLSDWVKSEYKEPGIARCAGPGEMADKLLLTTPSKKFTCQGPVDVNILAKCNPCLSNPCKNDGTCNSDPVDFYRCTCPYGFKGQDCDVPIHACISNPCKHGGTCHLKEGEEDGFWCICADGFEGENCEVNVDDCEDNDCENNSTCVDGINNYTCLCPPEYTGELCEEKLDFCAQDLNPCQHDSKCILTPKGFKCDCTPGYVGEHCDIDFDDCQDNKCKNGAHCTDAVNGYTCICPEGYSGLFCEFSPPMVLPRTSPCDNFDCQNGAQCIVRINEPICQCLPGYQGEKCEKLVSVNFINKESYLQIPSAKVRPQTNITLQIATDEDSGILLYKGDKDHIAVELYRGRVRASYDTGSHPASAIYSVETINDGNFHIVELLALDQSLSLSVDGGNPKIITNLSKQSTLNFDSPLYVGGMPGKSNVASLRQAPGQNGTSFHGCIRNLYINSELQDFQKVPMQTGILPGCEPCHKKVCAHGTCQPSSQAGFTCECQEGWMGPLCDQRTNDPCLGNKCVHGTCLPINAFSYSCKCLEGHGGVLCDEEEDLFNPCQAIKCKHGKCRLSGLGQPYCECSSGYTGDSCDREISCRGERIRDYYQKQQGYAACQTTKKVSRLECRGGCAGGQCCGPLRSKRRKYSFECTDGSSFVDEVEKVVKCGCTRCVS
B7: TAMM41 (protein, UniProt Q96BW9 1-452, looked up)
Phosphatidate …: MALQTLQSSWVTFRKILSHFPEELSLAFVYGSGVYRQAGPSSDQKNAMLDFVFTVDDPVAWHSKNLKKNWSHYSFLKVLGPKIITSIQNNYGAGVYYNSLIMCNGRLIKYGVISTNVLIEDLLNWNNLYIAGRLQKPVKIISVNEDVTLRSALDRNLKSAVTAAFLMLPESFSEEDLFIEIAGLSYSGDFRMVVGEDKTKVLNIVKPNIAHFRELYGSILQENPQVVYKSQQGWLEIDKSPEGQFTQLMTLPKTLQQQINHIMDPPGKNRDVEETLFQVAHDPDCGDVVRLGLSAIVRPSSIRQSTKGIFTAGKSFGNPCVTYLLTEWLPHSWLQCKALYLLGACEMLSFDGHKLGYCSKVQTGITAAEPGGRTMSDHWQCCWKLYCPSEFSETLPVCRVFPSYCFIYQSYRCIGLQKQQHLCSPSSSPSLRQLLPSVLVGYFCCYCHFSKW

test system: BAF complex subunits and histone proteins; experiment: Mass spectrometry proteomics of purified HA-SS18 WT and HA-SS18-SSX1 complexes (Tables 5A-5E); set-up: species or system human; settings: HA-SS18SSX1 purification, NE (soluble nuclear extract) fraction, HEK-293T; peptides per identified protein

Molecule	Total (total peptides)	Unique (unique peptides)
B1	3	3
B2	3	3
B3	3	3
B4	3	3
B5	3	3
B6	3	3
B7	3	3

same assay, conditions: HA-SS18WT_NE_peptides: HA-SS18 WT complexes purified from nuclear extract (NE), HEK-293T; label = protein identified (Gene Symbol)

Molecule	Total (peptides)	Unique (peptides)
B1	3	3
B2	3	3
B4	4	4
B5	2	2
B6	3	3
B7	4	4

same assay, conditions: HA-SS18WT_NE_peptides: proteins co-purified with HA-SS18 WT from nuclear extract (NE), HEK-293T

Molecule	Total (peptides)	Unique (peptides)
B3	2	2
